Source: PubChem BioAssay AID1259308 (NCATS, 2017)
Aim: 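Knock-downs that increase output of a recombinant reporter protein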 (primary screen). Cell system: human HEK293 embryonic kidney cells stably expressing firefly luciferase (HEK-CMV-Luc2-Hygro). Knock-down reagent: single siRNA against human genes, 0.8 pmol siRNA per well. Time to read-out: 72 h. Measured: 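Luciferase light (ONE-Glo) measured on one replicate plate set and viability (CellTiter-Glo) on the other, scaled to a negative control siRNA, with robust z-scores and luciferase per cell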. Direction: total luciferase, z-score: higher = more reporter protein produced. Hit rule: 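Active when the median/MAD z-score for overall luciferase is greater than 3; a gene was taken forward for validation with new siRNAs if at least two of its three siRNAs passed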. Meaning of the calls: active = raised luciferase; inactive = no rise.
Here is an unselected part of about 59,000 reagents. About 1,510 of them (2.6%) count as active. 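Calls use total luciferase alone and ignore viability, so some active siRNAs may act by altering cell number.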 Reagents against one gene are numbered here. Not all columns of the deposit are shown.

gene | reagent | total luciferase, z-score | call
KASH5 | 1 | -1.42 | inactive
KASH5 | 2 | -1.81 | inactive
KASH5 | 3 | -2.68 | inactive
THAP4 | 1 | 0.392 | inactive
THAP4 | 2 | 0.74 | inactive
THAP4 | 3 | -1.22 | inactive
LRRC37A17P | 1 | -1.48 | inactive
LRRC37A17P | 2 | 0.0393 | inactive
LRRC37A17P | 3 | -0.659 | inactive
LRRC37A17P | 4 | -0.556 | inactive
LRRC37A17P | 5 | 0.35 | inactive
LRRC37A17P | 6 | -0.143 | inactive
PNMA5 | 1 | -0.652 | inactive
PNMA5 | 2 | 5.7 | active
PNMA5 | 3 | 0.284 | inactive
RPL21P44 | 1 | 0.138 | inactive
RPL21P44 | 2 | 0.737 | inactive
RPL21P44 | 3 | 0.602 | inactive
SCG2 | 1 | 1.44 | inactive
SCG2 | 2 | 1.31 | inactive
SCG2 | 3 | 0.339 | inactive
CHIA | 1 | -0.407 | inactive
CHIA | 2 | 0.35 | inactive
CHIA | 3 | -1.21 | inactive
PRICKLE4 | 1 | 0.38 | inactive
PRICKLE4 | 2 | 0.88 | inactive
PRICKLE4 | 3 | -1.34 | inactive
GPX7 | 1 | 0.174 | inactive
GPX7 | 2 | 0.485 | inactive
GPX7 | 3 | -0.171 | inactive
SH3TC2 | 1 | 4.21 | active
SH3TC2 | 2 | 0.624 | inactive
SH3TC2 | 3 | 0.444 | inactive
RPS19BP1 | 1 | -1.45 | inactive
RPS19BP1 | 2 | 0.887 | inactive
RPS19BP1 | 3 | -1.81 | inactive
TAP2 | 1 | -0.966 | inactive
TAP2 | 2 | 1.56 | inactive
TAP2 | 3 | -0.505 | inactive
ECI2 | 1 | -1.42 | inactive
ECI2 | 2 | 0.34 | inactive
ECI2 | 3 | -1.54 | inactive
TMEM151A | 1 | -1.08 | inactive
TMEM151A | 2 | -0.149 | inactive
TMEM151A | 3 | 0.236 | inactive
LMNB2 | 1 | -0.00338 | inactive
LMNB2 | 2 | -1.56 | inactive
LMNB2 | 3 | -0.421 | inactive
PLAAT2 | 1 | 0.521 | inactive
PLAAT2 | 2 | -0.44 | inactive
PLAAT2 | 3 | -0.29 | inactive
OR2T6 | 1 | 0.902 | inactive
OR2T6 | 2 | 0.063 | inactive
OR2T6 | 3 | -0.489 | inactive
LOC647481 | 1 | -2.15 | inactive
LOC647481 | 2 | 0.236 | inactive
LOC647481 | 3 | 0.666 | inactive

Individual results from the entries so far.
GPX7 #1, total luciferase, z-score → 0.174
Value of RPS19BP1 #1 under “call”: inactive
THAP4 #3, call = inactive
Entry of RPL21P44 #2 under “call”: inactive
Under “call”, LOC647481 #1 reads inactive
RPS19BP1 #3, call → inactive
